From patent US12410148B2, “Antibody drug conjugates” (Pharma Mar, S.A., priority 2013, dated 2025)
At least one read-out could not be matched to a standard name with certainty.

System: Raji-clone #18 (null CD5 expression)
Assay: In vitro cytotoxicity, MTT assay, 72 h dose-response
Assay type: cell-based, human
Details: DR curves, range of concentrations tested

COC1=CC[C@@H]([C@@H](C)/C=C(C)/C=C\C=C/C(=O)N[C@H](C(=O)N/C=C\C[C@H](C/C=C(\C)Cl)OC(=O)NCCCN)C(C)(C)C)OC1=O [Compound 4] was tested, and the “IC50 in CD5 null cells” value was “did not reach the IC50 value”.
